Laboratory results reported in US20250283871A1, “COMPOSITIONS AND METHODS FOR MODULATING THE INTERACTION BETWEEN SS18-SSX FUSION ONCOPROTEIN AND NUCLEOSOMES” (Dana-Farber Cancer Institute, Inc., priority 2020, published 2025).

Test system: BAF complex subunits and histone proteins
Test: Mass spectrometry proteomics of purified HA-SS18 WT and HA-SS18-SSX1 complexes (Tables 5A-5E)
Set-up: species or system human
Settings: for Total / Unique: HA-SS18SSX1_CHR_peptides; for Total: total peptides of the identified protein; for Unique: unique peptides of the identified protein; for Total (total peptides) / Unique (unique peptides): HA-SS18WT_CHR_peptides: protein identified in HA-SS18 WT BAF complex purification from nuclease-treated solubilized chromatin (CHR)
[1] = HA-SS18SSX1_NE_peptides: protein co-purified with HA-SS18-SSX1 BAF complexes from soluble nuclear extract (NE), HEK-293T cells
[2] = HA-SS18WT_NE_peptides: proteins co-purified with HA-SS18 WT from nuclear extract (NE), HEK-293T

| Molecule | Total | Unique | Total (total peptides) (HEK-293T) | Unique (unique peptides) (HEK-293T) | Total (peptides) [1] | Unique (peptides) [1] | Total (peptides) [2] | Unique (peptides) [2] |
| --- | --- | --- | --- | --- | --- | --- | --- | --- |
| CLASRP (protein, UniProt Q8N2M8 1-674, looked up) CLK4-associating …: MWHEARKHERKLRGMMVDYKKRAERRREYYEKIKKDPAQFLQVHGRACKVHLDSAVALAAESPVNMMPWQGDTNNMIDRFDVRAHLDHIPDYTPPLLTTISPEQESDERKCNYERYRGLVQNDFAGISEEQCLYQIYIDELYGGLQRPSEDEKKKLAEKKASIGYTYEDSTVAEVEKAAEKPEEEESAAEEESNSDEDEVIPDIDVEVDVDELNQEQVADLNKQATTYGMADGDFVRMLRKDKEEAEAIKHAKALEEEKAMYSGRRSRRQRREFREKRLRGRKISPPSYARRDSPTYDPYKRSPSESSSESRSRSRSPTPGREEKITFITSFGGSDEEAAAAAAAAAASGVTTGKPPAPPQPGGPAPGRNASARRRSSSSSSSSSASRTSSSRSSSRSSSRSRRGGGYYRSGRHARSRSRSWSRSRSRSRRYSRSRSRGRRHSGGGSRDGHRYSRSPARRGGYGPRRRSRSRSHSGDRYRRGGRGLRHHSSSRSRSSWSLSPSRSRSLTRSRSHSPSPSQSRSRSRSRSQSPSPSPAREKLTRPAASPAVGEKLKKTEPAAGKETGAAKPKLTPQEKLKLRMQKALNRQFKADKKAAQEKMIQQEHERQEREDELRAMARKIRMKERERREKEREEWERQYSRQSRSPSPRYSREYSSSRRRSRSRSRSPHYRH | 2 | 2 | 1 | 1 |  |  |  |  |
| DIMT1 (protein, UniProt Q9UNQ2 1-313, looked up) Dimethyladenosine transferase: MPKVKSGAIGRRRGRQEQRRELKSAGGLMFNTGIGQHILKNPLIINSIIDKAALRPTDVVLEVGPGTGNMTVKLLEKAKKVVACELDPRLVAELHKRVQGTPVASKLQVLVGDVLKTDLPFFDTCVANLPYQISSPFVFKLLLHRPFFRCAILMFQREFALRLVAKPGDKLYCRLSINTQLLARVDHLMKVGKNNFRPPPKVESSVVRIEPKNPPPPINFQEWDGLVRITFVRKNKTLSAAFKSSAVQQLLEKNYRIHCSVHNIIIPEDFSIADKIQQILTSTGFSDKRARSMDIDDFIRLLHGFNAEGIHFS | 2 | 2 | 2 | 2 | 1 | 1 | 2 | 2 |
| BRIX1 (protein, UniProt Q8TDN6 1-353, looked up) Ribosome biogenesis protein …: MAATKRKRRGGFAVQAKKPKRNEIDAEPPAKRHATAEEVEEEERDRIPGPVCKGKWKNKERILIFSSRGINFRTRHLMQDLRMLMPHSKADTKMDRKDKLFVINEVCEMKNCNKCIYFEAKKKQDLYMWLSNSPHGPSAKFLVQNIHTLAELKMTGNCLKGSRPLLSFDPAFDELPHYALLKELLIQIFSTPRYHPKSQPFVDHVFTFTILDNRIWFRNFQIIEEDAALVEIGPRFVLNLIKIFQGSFGGPTLYENPHYQSPNMHRRVIRSITAAKYREKQQVKDVQKLRKKEPKTLLPHDPTADVFVTPAEEKPIEIQWVKPEPKVDLKARKKRIYKRQRKMKQRMDSGKTK | 2 | 2 |  |  |  |  |  |  |
| CDCA2 (protein, UniProt Q69YH5 1-1023, looked up) Cell division …: MDANSKDKPPETKESAMNNAGNASFILGTGKIVTPQKHAELPPNPCTPDTFKSPLNFSTVTVEQLGITPESFVRNSAGKSSSYLKKCRRRSAVGARGSPETNHLIRFIARQQNIKNARKSPLAQDSPSQGSPALYRNVNTLRERISAFQSAFHSIKENEKMTGCLEFSEAGKESEMTDLTRKEGLSACQQSGFPAVLSSKRRRISYQRDSDENLTDAEGKVIGLQIFNIDTDRACAVETSVDLSEISSKLGSTQSGFLVEESLPLSELTETSNALKVADCVVGKGSSDAVSPDTFTAEVSSDAVPDVRSPATPACRRDLPTPKTFVLRSVLKKPSVKMCLESLQEHCNNLYDDDGTHPSLISNLPNCCKEKEAEDEENFEAPAFLNMRKRKRVTFGEDLSPEVFDESLPANTPLRKGGTPVCKKDFSGLSSLLLEQSPVPEPLPQPDFDDKGENLENIEPLQVSFAVLSSPNKSSISETLSGTDTFSSSNNHEKISSPKVGRITRTSNRRNQLVSVVEESVCNLLNTEVQPCKEKKINRRKSQETKCTKRALPKKSQVLKSCRKKKGKGKKSVQKSLYGERDIASKKPLLSPIPELPEVPEMTPSIPSIRRLGSGYFSSNGKLEEVKTPKNPVKRKDLLRHDPDLHMHQGYDKYDVSEFCSYIKSSSSLGNATSDEDPNTNIMNINENKNIPKAKNKSESENEPKAGTDSPVSCASVTEERVASDSPKPALTLQQGQEFSAGGQNAENLCQFFKISPDLNIKCERKDDFLGAAEGKLQCNRLMPNSQKDCHCLGDVLIENTKESKSQSEDLGRKPMESSSVVSCRDRKDRRRSMCYSDGRSLHLEKNGNHTPSSSVGSSVEISLENSELFKDLSDAIEQTFQRRNSETKVRRSTRLQKDLENEGLVWISLPLPSTSQKAKRRTICTFDSSGFESMSPIKETVSSRQKPQMAPPVSDPENSQGPAAGSSDEPGKRRKSFCISTLANTKATSQFKGYRRRSSLNGKGESSLTALERIEHNGERKQ | 2 | 2 | 1 | 1 |  |  |  |  |
| PRPH (protein, UniProt P41219 1-470, looked up) Peripherin: MSHHPSGLRAGFSSTSYRRTFGPPPSLSPGAFSYSSSSRFSSSRLLGSASPSSSVRLGSFRSPRAGAGALLRLPSERLDFSMAEALNQEFLATRSNEKQELQELNDRFANFIEKVRFLEQQNAALRGELSQARGQEPARADQLCQQELRELRRELELLGRERDRVQVERDGLAEDLAALKQRLEEETRKREDAEHNLVLFRKDVDDATLSRLELERKIESLMDEIEFLKKLHEEELRDLQVSVESQQVQQVEVEATVKPELTAALRDIRAQYESIAAKNLQEAEEWYKSKYADLSDAANRNHEALRQAKQEMNESRRQIQSLTCEVDGLRGTNEALLRQLRELEEQFALEAGGYQAGAARLEEELRQLKEEMARHLREYQELLNVKMALDIEIATYRKLLEGEESRISVPVHSFASLNIKTTVPEVEPPQDSHSRKTVLIKTIETRNGEVVTESQKEQRSELDKSSAHSY | 2 | 2 | 1 | 1 |  |  | 1 | 1 |
| FUS (protein, UniProt P35637 1-526, looked up) RNA-binding protein FUS: MASNDYTQQATQSYGAYPTQPGQGYSQQSSQPYGQQSYSGYSQSTDTSGYGQSSYSSYGQSQNTGYGTQSTPQGYGSTGGYGSSQSSQSSYGQQSSYPGYGQQPAPSSTSGSYGSSSQSSSYGQPQSGSYSQQPSYGGQQQSYGQQQSYNPPQGYGQQNQYNSSSGGGGGGGGGGNYGQDQSSMSSGGGSGGGYGNQDQSGGGGSGGYGQQDRGGRGRGGSGGGGGGGGGGYNRSSGGYEPRGRGGGRGGRGGMGGSDRGGFNKFGGPRDQGSRHDSEQDNSDNNTIFVQGLGENVTIESVADYFKQIGIIKTNKKTGQPMINLYTDRETGKLKGEATVSFDDPPSAKAAIDWFDGKEFSGNPIKVSFATRRADFNRGGGNGRGGRGRGGPMGRGGYGGGGSGGGGRGGFPSGGGGGGGQQRAGDWKCPNPTCENMNFSWRNECNQCKAPKPDGPGGGPGGSHMGGNYGDDRRGGRGGYDRGGYRGRGGDRGGFRGGRGGGDRGGFGPGKMDSRGEHRQDRRERPY | 2 | 2 |  |  |  |  | 1 | 1 |
| UTP11 (protein, UniProt Q9Y3A2 1-253, looked up) Probable U3 small nucleolar …: MAAAFRKAAKSRQREHRERSQPGFRKHLGLLEKKKDYKLRADDYRKKQEYLKALRKKALEKNPDEFYYKMTRVKLQDGVHIIKETKEEVTPEQLKLMRTQDVKYIEMKRVAEAKKIERLKSELHLLDFQGKQQNKHVFFFDTKKEVEQFDVATHLQTAPELVDRVFNRPRIETLQKEKVKGVTNQTGLKRIAKERQKQYNCLTQRIEREKKLFVIAQKIQTRKDLMDKTQKVKVKKETVNSPAIYKFQSRRKR | 2 | 2 | 1 | 1 |  |  |  |  |
| PHF2 (protein, UniProt O75151 1-1096, looked up) Lysine-specific demethylase …: MATVPVYCVCRLPYDVTRFMIECDACKDWFHGSCVGVEEEEAPDIDIYHCPNCEKTHGKSTLKKKRTWHKHGPGQAPDVKPVQNGSQLFIKELRSRTFPSAEDVVARVPGSQLTLGYMEEHGFTEPILVPKKDGLGLAVPAPTFYVSDVENYVGPERSVDVTDVTKQKDCKMKLKEFVDYYYSTNRKRVLNVTNLEFSDTRMSSFVEPPDIVKKLSWVENYWPDDALLAKPKVTKYCLICVKDSYTDFHIDSGGASAWYHVLKGEKTFYLIRPASANISLYERWRSASNHSEMFFADQVDKCYKCIVKQGQTLFIPSGWIYATLTPVDCLAFAGHFLHSLSVEMQMRAYEVERRLKLGSLTQFPNFETACWYMGKHLLEAFKGSHKSGKQLPPHLVQGAKILNGAFRSWTKKQALAEHEDELPEHFKPSQLIKDLAKEIRLSENASKAVRPEVNTVASSDEVCDGDREKEEPPSPIEATPPQSLLEKVSKKKTPKTVKMPKPSKIPKPPKPPKPPRPPKTLKLKDGGKKKGKKSRESASPTIPNLDLLEAHTKEALTKMEPPKKGKATKSVLSVPNKDVVHMQNDVERLEIREQTKSKSEAKWKYKNSKPDSLLKMEEEQKLEKSPLAGNKDNKFSFSFSNKKLLGSKALRPPTSPGVFGALQNFKEDKPKPVRDEYEYVSDDGELKIDEFPIRRKKNAPKRDLSFLLDKKAVLPTPVTKPKLDSAAYKSDDSSDEGSLHIDTDTKPGRNARVKKESGSSAAGILDLLQASEEVGALEYNPSSQPPASPSTQEAIQGMLSMANLQASDSCLQTTWGAGQAKGSSLAAHGARKNGGGSGKSAGKRLLKRAAKNSVDLDDYEEEQDHLDACFKDSDYVYPSLESDEDNPIFKSRSKKRKGSDDAPYSPTARVGPSVPRQDRPVREGTRVASIETGLAAAAAKLSQQEEQKSKKKKSAKRKLTPNTTSPSTSTSISAGTTSTSTTPASTTPASTTPASTSTASSQASQEGSSPEPPPESHSSSLADHEYTAAGTFTGAQAGRTSQPMAPGVFLTQRRPSASSPNNNTAAKGKRTKKGMATAKQRLGKILKIHRNGKLLL | 2 | 2 | 2 | 1 |  |  |  |  |
| NEFL (protein, UniProt P07196 2-543, looked up) Neurofilament light …: SSFSYEPYYSTSYKRRYVETPRVHISSVRSGYSTARSAYSSYSAPVSSSLSVRRSYSSSSGSLMPSLENLDLSQVAAISNDLKSIRTQEKAQLQDLNDRFASFIERVHELEQQNKVLEAELLVLRQKHSEPSRFRALYEQEIRDLRLAAEDATNEKQALQGEREGLEETLRNLQARYEEEVLSREDAEGRLMEARKGADEAALARAELEKRIDSLMDEISFLKKVHEEEIAELQAQIQYAQISVEMDVTKPDLSAALKDIRAQYEKLAAKNMQNAEEWFKSRFTVLTESAAKNTDAVRAAKDEVSESRRLLKAKTLEIEACRGMNEALEKQLQELEDKQNADISAMQDTINKLENELRTTKSEMARYLKEYQDLLNVKMALDIEIAAYRKLLEGEETRLSFTSVGSITSGYSQSSQVFGRSAYGGLQTSSYLMSTRSFPSYYTSHVQEEQIEVEETIEAAKAEEAKDEPPSEGEAEEEEKDKEEAEEEEAAEEEEAAKEESEEAKEEEEGGEGEEGEETKEAEEEEKKVEGAGEEQAAKKKD | 2 | 2 |  |  |  |  |  |  |
